The results in this text go back to publication doi:10.1101/2023.01.24.525215.

Construct, isoform or probe ends are uncertain for at least one entry. The comparison behind a weaker result is the experiment's own reference, which may not be listed here. Protein sequences can lack the tags named with them.

The data set deals with T1, WRKY53 (Arabidopsis thaliana) (UniProt Q9SUP6).
T1 sequence (looked up): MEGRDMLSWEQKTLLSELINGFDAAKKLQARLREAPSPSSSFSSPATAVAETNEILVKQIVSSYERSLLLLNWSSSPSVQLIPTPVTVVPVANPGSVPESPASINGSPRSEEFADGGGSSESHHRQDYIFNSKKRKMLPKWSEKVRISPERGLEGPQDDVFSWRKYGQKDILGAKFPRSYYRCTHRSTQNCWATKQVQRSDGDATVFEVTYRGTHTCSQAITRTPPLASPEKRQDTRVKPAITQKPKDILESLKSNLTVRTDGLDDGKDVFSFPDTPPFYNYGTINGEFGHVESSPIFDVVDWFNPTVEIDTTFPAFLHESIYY
The data set can be described thus: EMSA. To be noted: with CAM5; residues 1-324. Background: In EMSA bound probe runs differently from free probe, usually more slowly.

Take “ATAATTATTCTTGACTGATGTATGCATATA (double strand) [PDF1.2 w-box probe]”: the binding result is “binds more weakly”.
As for “TTTATTTGAAAATTGACTGTAGATATAAAC (double strand) [PR1 w-box probe]”, the binding result is reported as “binds more weakly”.
